We go through 1 sequence from paper PMC1526750.

Protein sequences, listed by entry. Tags and fused reporters are not part of them. Lines headed by an entry give the natural chain unless they say otherwise; changes in a name come on top.
UniProt Q9H165: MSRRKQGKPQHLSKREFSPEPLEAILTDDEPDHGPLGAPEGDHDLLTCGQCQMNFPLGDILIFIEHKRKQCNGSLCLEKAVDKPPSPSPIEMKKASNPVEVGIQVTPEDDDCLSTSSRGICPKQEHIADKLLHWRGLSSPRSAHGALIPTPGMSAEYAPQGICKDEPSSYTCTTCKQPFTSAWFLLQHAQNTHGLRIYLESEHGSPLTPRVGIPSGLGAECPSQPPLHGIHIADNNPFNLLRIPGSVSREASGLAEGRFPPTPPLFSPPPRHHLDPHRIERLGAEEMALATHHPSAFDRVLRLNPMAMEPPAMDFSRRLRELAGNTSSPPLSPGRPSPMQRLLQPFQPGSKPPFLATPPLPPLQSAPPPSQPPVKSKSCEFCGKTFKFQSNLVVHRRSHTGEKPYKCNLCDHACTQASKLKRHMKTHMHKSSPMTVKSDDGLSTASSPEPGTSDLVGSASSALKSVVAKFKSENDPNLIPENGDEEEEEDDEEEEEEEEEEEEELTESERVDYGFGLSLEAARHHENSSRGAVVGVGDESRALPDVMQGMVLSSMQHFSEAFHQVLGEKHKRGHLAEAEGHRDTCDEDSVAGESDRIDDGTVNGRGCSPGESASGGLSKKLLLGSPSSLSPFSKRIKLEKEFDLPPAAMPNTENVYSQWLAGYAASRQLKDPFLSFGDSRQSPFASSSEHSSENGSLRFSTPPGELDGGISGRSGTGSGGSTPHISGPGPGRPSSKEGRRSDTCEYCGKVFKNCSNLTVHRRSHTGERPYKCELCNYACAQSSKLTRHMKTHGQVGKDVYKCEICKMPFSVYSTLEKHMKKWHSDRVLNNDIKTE

One data set addresses FLAG-BCL6 (UniProt P41182). Kind of data set: EMSA. Conditions: BCL6-transfected HEK293 extract; 20 mM HEPES pH 7.9, 40 mM KCl, 6 mM MgCl2, 1 mM DTT, 0.1% NP40, 3 mg/ml acetylated BSA, 10% glycerol, 2% Ficoll, PMSF, aprotinin; protein in a lysate after overexpression; protein details: FLAG. In general terms: Mobility shift assays separate free from complexed probe on a gel.
The next data set deals with HA-BCL11A-XL (human) (UniProt Q9H165). Kind of data set: EMSA. The conditions noted are these: 20 mM HEPES pH 7.9, 40 mM KCl, 6 mM MgCl2, 1 mM DTT, 0.1% NP40, 3 mg/ml acetylated BSA, 10% glycerol, 2% Ficoll, PMSF, aprotinin, protein in a lysate after overexpression, residues 1-835, protein details: N-terminal HA.

For at least one entry, the source does not settle the construct or the ends of the probe. Results from cells or extracts need not show a direct contact. For part of these data: Negatives hold for the conditions tested.

On to “GCACTCCCACGCCTCACTCCCACGCCTCACTCCCACGCCTCCCACCCCCGCCTCCCACCCCCGCCT (double strand) [4x BCL11A-XL CASTing consensus probe]”, for which the binding result with FLAG-BCL6 is recorded as “no binding”; with HA-BCL11A-XL (human) (HEK293 or DT40 extract, dose dependent, anti-HA supershift/ablation) it was “binds”; with HA-BCL11A-XL (human) (with increasing FLAG-BCL6 DT40 nuclear extract: XL binding enhanced, no heteromeric complex on DNA (anti-FLAG no effect)) it was “binds”.
